Assay results: article PMC11349648
Results are given in words; binding and its absence hold for the method and conditions named. In cells and extracts the contact can be indirect. These calls come from enrichment with a bait or labelling near it, and not all partners need be listed.

Protein sequences, listed by entry. Tags and fused reporters are not part of them. Lines headed by an entry give the natural chain unless they say otherwise; changes in a name come on top.
UniProt P28752: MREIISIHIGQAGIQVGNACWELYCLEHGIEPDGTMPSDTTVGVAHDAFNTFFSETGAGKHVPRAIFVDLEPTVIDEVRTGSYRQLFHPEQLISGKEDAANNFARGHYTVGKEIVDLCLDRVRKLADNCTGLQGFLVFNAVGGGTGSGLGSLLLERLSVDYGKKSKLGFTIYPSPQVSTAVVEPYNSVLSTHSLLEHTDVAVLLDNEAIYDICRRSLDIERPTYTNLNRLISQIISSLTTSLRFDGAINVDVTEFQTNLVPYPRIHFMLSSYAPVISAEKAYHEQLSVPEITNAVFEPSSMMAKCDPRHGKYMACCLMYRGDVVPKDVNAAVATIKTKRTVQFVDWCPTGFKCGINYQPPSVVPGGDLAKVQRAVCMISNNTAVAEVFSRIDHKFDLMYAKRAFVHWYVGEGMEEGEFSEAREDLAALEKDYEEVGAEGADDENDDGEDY
UniProt P12149: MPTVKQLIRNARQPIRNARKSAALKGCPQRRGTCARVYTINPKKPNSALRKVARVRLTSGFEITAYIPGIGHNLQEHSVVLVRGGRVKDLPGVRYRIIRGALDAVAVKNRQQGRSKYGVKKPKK

Biological target: T1, Ribosome-inactivating protein OsRIP1 (Oryza sativa) (UniProt Q9LGK6)
T1 sequence: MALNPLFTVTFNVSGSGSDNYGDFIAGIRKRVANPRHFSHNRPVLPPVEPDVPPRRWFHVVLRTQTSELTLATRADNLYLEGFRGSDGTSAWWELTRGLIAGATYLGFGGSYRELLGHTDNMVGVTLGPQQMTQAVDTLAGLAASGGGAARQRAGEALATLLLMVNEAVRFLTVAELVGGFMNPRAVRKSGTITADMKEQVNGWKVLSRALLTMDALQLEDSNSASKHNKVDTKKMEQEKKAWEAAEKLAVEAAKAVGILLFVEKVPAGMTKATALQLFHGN
Assay: affinity purification with mass spectrometry; approximately 54 μg purified OsRIP1 (bait) added to 100 μg total protein extract from shoots of MeJA-treated WT rice (prey), 30 min at 4°C; captured on Ni-NTA agarose beads; one wash with binding buffer with 50 mM imidazole, three with trypsin digest buffer; on-bead trypsin digest, LC-MS/MS, MaxLFQ; control: beads with plant extract only; three replicates; FDR = 0.05 and |log2FC| = 1; only the target purified

## Tubulin alpha-1 chain, α-tubulin (from UniProt P28752 1-450)
  binding: binds

## Glycine-rich RNA-binding protein GRP1A (from UniProt Q2QLR2)
  binding: binds

## 30S ribosomal protein S12 (from UniProt P12149)
  binding: binds

## Q8W0D1 (RNA-binding protein) (from UniProt Q8W0D1)
  binding: binds

## 40S ribosomal protein S5 (Os11g0482000) (from UniProt Q2R4A1 1-199)
  binding: binds

## Q2QVJ6 (NADP-dependent oxidoreductase) (from UniProt Q2QVJ6)
  binding: binds

B1: Plastid-lipid associated protein/fibrillin domain, fibrillin-like protein 2 (protein, UniProt Q6K439 55-319)
chain: AVAGDAEDEWGKEPAADQGGAAAAVAEAPADVPVTSEVAELKAKLKEALYGTERGLRASSETRAEVVELITQLEARNPTPAPTEALTLLNGKWILAYTSFSQLFPLLGSGSLPQLVKVEEISQTIDSENFTVQNCIKFSGPLATTSVSTNAKFEVRSPKRVQIKFDEGIIGTPQLTDSIVLPEKFELFGQNIDLTPLKGIFSSIENAASSVARTISGQPPLKIPIRTDNAESWLLTTYLDDELRISRGDGSSIFVLFKEGSTLLY
  binding: binds

B2: 50S ribosomal protein L27 (protein, UniProt O65037 61-195)
chain: AHKKGAGSTKNGRDSPGQRLGVKIYGDQVAKPGAIIIRQRGTRVYPGNNVGMGKDHTLFSLIDGLVKFEKYGPDKKKVSVYPYEKQPENPNSYRARKREYFRMQRERKKARAEGIVEVQLVLAAADESPEVNADC
  binding: binds
